{"sequences": {"note": "Sequences of proteins named here, by UniProt entry; tags and fusion partners are left off.", "UniProt A1TLI0": "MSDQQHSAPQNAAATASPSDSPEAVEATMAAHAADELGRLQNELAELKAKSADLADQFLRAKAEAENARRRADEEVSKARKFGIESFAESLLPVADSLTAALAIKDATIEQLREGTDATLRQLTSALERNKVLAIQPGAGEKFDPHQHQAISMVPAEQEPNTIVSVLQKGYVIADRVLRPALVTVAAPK"}, "source": "paper PMC11300334", "biological_target": "ClpA of Paracidovorax citrulli, bacterial two-hybrid fusion (pBT-ClpA) (Paracidovorax citrulli)", "test": "two-hybrid; bacterial two-hybrid in E. coli XL1-Blue MRF' Kan; ClpA in pBT, targets in pTRG (legend and Table 1); growth on selective minimal medium with 5 mM 3-amino-1,2,4-triazole and streptomycin, 48 h at 28°C", "note": "These are yes or no findings as the source states them, for the method shown.", "data": [{"substance": "GrpE of Paracidovorax citrulli, bacterial two-hybrid fusion (pTRG-GrpE) (from UniProt A1TLI0 1-189)", "values": [{"measurement": "binding", "value": "no binding"}]}]}
